This note sets out measurements from publication doi:10.1101/2022.12.19.520889.

Amino acid sequences for entries named in this document (tags omitted). A change or cut given only in a name is not applied to a line headed by its entry.
UniProt P10721: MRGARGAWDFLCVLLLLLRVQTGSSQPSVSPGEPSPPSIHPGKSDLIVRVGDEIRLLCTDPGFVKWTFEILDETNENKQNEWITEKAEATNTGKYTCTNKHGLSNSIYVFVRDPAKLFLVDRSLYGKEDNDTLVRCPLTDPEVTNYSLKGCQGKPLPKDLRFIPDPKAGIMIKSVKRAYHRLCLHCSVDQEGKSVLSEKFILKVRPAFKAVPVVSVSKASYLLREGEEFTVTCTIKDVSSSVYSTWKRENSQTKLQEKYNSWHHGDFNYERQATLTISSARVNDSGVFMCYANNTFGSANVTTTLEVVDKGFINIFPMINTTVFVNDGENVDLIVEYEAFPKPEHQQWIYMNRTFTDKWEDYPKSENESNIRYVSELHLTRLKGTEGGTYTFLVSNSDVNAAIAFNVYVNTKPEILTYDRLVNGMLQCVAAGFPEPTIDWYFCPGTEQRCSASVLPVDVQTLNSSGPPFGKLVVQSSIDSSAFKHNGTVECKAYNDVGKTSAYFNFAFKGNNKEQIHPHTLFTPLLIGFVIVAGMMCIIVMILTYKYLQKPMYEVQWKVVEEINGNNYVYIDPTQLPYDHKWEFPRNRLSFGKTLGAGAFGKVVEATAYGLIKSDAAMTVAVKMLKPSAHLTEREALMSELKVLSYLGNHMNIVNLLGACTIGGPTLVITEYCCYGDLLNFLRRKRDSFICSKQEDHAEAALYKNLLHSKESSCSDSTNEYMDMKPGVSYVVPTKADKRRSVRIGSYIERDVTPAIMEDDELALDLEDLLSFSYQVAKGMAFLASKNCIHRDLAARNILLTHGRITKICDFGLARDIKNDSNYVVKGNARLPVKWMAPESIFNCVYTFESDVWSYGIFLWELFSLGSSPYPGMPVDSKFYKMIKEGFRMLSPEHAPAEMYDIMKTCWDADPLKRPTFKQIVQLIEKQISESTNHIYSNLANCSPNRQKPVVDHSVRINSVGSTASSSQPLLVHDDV
UniProt Q9UBF8: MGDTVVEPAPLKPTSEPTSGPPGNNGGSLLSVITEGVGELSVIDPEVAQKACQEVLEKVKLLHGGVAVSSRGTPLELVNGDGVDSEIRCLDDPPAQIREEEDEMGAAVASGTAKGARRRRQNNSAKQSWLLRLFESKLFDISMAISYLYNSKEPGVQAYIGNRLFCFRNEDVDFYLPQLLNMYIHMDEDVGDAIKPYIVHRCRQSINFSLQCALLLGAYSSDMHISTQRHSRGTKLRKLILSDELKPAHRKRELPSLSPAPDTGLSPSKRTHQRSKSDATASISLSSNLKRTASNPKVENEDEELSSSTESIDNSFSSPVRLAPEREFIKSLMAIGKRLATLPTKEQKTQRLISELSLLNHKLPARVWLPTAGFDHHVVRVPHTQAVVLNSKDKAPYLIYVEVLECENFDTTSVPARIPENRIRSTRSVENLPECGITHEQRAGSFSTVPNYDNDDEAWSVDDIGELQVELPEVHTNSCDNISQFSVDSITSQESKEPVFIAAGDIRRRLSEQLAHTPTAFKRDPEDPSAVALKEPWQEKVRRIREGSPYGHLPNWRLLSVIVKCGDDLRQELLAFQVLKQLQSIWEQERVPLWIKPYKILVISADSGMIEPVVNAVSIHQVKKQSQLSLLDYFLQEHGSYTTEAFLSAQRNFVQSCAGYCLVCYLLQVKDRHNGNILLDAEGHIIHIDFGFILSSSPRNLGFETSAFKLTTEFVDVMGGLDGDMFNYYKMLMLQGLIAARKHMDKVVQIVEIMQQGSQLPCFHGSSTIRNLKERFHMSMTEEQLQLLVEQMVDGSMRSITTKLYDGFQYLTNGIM
UniProt O43747: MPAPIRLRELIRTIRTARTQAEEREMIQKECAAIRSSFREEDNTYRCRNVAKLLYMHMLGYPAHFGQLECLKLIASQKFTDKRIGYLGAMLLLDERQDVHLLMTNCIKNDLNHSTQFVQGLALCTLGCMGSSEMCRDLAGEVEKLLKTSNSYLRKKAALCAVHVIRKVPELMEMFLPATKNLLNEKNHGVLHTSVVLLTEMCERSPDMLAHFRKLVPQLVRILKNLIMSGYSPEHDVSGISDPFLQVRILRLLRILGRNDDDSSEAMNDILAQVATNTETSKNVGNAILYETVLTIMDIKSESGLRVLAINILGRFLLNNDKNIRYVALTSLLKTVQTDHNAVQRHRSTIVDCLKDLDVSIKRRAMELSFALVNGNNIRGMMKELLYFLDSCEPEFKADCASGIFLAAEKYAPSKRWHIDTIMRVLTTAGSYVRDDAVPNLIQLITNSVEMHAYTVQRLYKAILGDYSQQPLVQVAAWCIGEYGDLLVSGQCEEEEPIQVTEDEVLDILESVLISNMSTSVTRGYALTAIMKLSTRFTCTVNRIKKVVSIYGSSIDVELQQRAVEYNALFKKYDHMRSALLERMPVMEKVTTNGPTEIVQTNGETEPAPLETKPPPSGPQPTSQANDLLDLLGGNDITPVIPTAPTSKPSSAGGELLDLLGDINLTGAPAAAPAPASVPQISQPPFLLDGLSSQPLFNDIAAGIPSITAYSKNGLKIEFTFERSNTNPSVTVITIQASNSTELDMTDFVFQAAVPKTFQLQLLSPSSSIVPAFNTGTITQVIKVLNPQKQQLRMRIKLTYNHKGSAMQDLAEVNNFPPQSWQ

These are yes or no findings as the source states them, for the method shown. In cells and extracts the contact can be indirect. For part of these data: Binding calls can cover weak binding; strength is not graded here.

The target in test [1] is KIT mutant of GIST-T1 cells (KIT^Ex11, imatinib-sensitive) (human (endogenous in GIST-T1)) (UniProt P10721). The test can be described thus: co-IP.
Test [2] has as its target T1, protein kinase D2 (PKD2) (human (endogenous in GIST-T1 and leukemia cell lines)) (UniProt Q9BZL6).
T1 sequence: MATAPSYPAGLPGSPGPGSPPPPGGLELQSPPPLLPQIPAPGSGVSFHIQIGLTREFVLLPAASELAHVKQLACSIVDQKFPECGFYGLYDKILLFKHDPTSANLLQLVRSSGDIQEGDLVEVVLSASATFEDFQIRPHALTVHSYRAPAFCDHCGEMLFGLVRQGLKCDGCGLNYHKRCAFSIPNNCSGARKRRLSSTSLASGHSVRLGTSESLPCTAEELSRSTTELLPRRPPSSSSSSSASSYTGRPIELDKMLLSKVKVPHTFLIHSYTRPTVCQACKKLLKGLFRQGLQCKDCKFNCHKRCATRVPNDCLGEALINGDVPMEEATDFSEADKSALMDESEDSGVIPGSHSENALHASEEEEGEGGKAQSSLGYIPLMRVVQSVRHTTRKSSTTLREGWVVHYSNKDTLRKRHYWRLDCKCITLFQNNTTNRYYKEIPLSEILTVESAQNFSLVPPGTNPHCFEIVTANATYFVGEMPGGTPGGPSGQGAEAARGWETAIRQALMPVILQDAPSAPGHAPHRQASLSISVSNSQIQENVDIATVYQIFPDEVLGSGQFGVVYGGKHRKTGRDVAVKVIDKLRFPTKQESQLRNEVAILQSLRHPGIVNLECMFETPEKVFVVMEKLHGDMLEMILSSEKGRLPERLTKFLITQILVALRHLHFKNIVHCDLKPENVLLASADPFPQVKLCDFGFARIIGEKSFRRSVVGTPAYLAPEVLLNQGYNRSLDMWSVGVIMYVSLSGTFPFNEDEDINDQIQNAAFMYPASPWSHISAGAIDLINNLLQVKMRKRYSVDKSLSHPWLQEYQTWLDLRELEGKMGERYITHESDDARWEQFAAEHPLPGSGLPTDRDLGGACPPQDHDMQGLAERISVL
The test can be described thus: co-IP.

The target in test [3] is T1, protein kinase D2 (PKD2) (human (endogenous in GIST-T1 and leukemia cell lines)). Put plainly: condition: only cells treated with 200 nM imatinib for 8 hours.
In test [4] the target is KIT mutant of GIST-T1 cells (KIT^Ex11, imatinib-sensitive) (human (endogenous in GIST-T1)) (UniProt P10721). Put plainly: proximity ligation.
Test [5] has the same target. Put plainly: condition: only cells treated with 200 nM imatinib for 8 hours.

“phosphatidylinositol 4-kinase IIIβ (PI4KIIIβ) (from UniProt Q9UBF8 1-816) (enzyme)”: in test [1], the binding result is “binds”.
For “KIT mutant of GIST-T1 cells (KIT^Ex11, imatinib-sensitive) (from UniProt P10721) (receptor)”, the binding result in test [2] is listed as “binds”; in test [3], “no binding”.
For the molecule “γ-adaptin (AP1 component) (from UniProt O43747 1-822)”, the binding entry in test [1] is “binds”.

B1: phospho-PLCγ2^Y759 (phospholipase Cγ2 phosphorylated at Y759) (enzyme, UniProt P16885 1-1265)
chain: MSTTVNVDSLAEYEKSQIKRALELGTVMTVFSFRKSTPERRTVQVIMETRQVAWSKTADKIEGFLDIMEIKEIRPGKNSKDFERAKAVRQKEDCCFTILYGTQFVLSTLSLAADSKEDAVNWLSGLKILHQEAMNASTPTIIESWLRKQIYSVDQTRRNSISLRELKTILPLINFKVSSAKFLKDKFVEIGAHKDELSFEQFHLFYKKLMFEQQKSILDEFKKDSSVFILGNTDRPDASAVYLHDFQRFLIHEQQEHWAQDLNKVRERMTKFIDDTMRETAEPFLFVDEFLTYLFSRENSIWDEKYDAVDMQDMNNPLSHYWISSSHNTYLTGDQLRSESSPEAYIRCLRMGCRCIELDCWDGPDGKPVIYHGWTRTTKIKFDDVVQAIKDHAFVTSSFPVILSIEEHCSVEQQRHMAKAFKEVFGDLLLTKPTEASADQLPSPSQLREKIIIKHKKLGPRGDVDVNMEDKKDEHKQQGELYMWDSIDQKWTRHYCAIADAKLSFSDDIEQTMEEEVPQDIPPTELHFGEKWFHKKVEKRTSAEKLLQEYCMETGGKDGTFLVRESETFPNDYTLSFWRSGRVQHCRIRSTMEGGTLKYYLTDNLTFSSIYALIQHYRETHLRCAEFELRLTDPVPNPNPHESKPWYYDSLSRGEAEDMLMRIPRDGAFLIRKREGSDSYAITFRARGKVKHCRINRDGRHFVLGTSAYFESLVELVSYYEKHSLYRKMRLRYPVTPELLERYNMERDINSLYDVSRMYVDPSEINPSMPQRTVKALYDYKAKRSDELSFCRGALIHNVSKEPGGWWKGDYGTRIQQYFPSNYVEDISTADFEELEKQIIEDNPLGSLCRGILDLNTYNVVKAPQGKNQKSFVFILEPKQQGDPPVEFATDRVEELFEWFQSIREITWKIDTKENNMKYWEKNQSIAIELSDLVVYCKPTSKTKDNLENPDFREIRSFVETKADSIIRQKPVDLLKYNQKGLTRVYPKGQRVDSSNYDPFRLWLCGSQMVALNFQTADKYMQMNHALFSLNGRTGYVLQPESMRTEKYDPMPPESQRKILMTLTVKVLGARHLPKLGRSIACPFVEVEICGAEYDNNKFKTTVVNDNGLSPIWAPTQEKVTFEIYDPNLAFLRFVVYEEDMFSDPNFLAHATYPIKAVKSGFRSVPLKNGYSEDIELASLLVFCEMRPVLESEEELYSSCRQLRRRQEELNNQLFLYDTHQNLRNANRDALVKEFSVNENQLQLYQEKCNKRLREKRVSNSKFYS
modifications: phosphotyrosine at 759
In the case of B1, in test [4], the binding result was “binds”.

B2: protein kinase D2 (PKD2) (enzyme, UniProt Q9BZL6 1-878)
chain: MATAPSYPAGLPGSPGPGSPPPPGGLELQSPPPLLPQIPAPGSGVSFHIQIGLTREFVLLPAASELAHVKQLACSIVDQKFPECGFYGLYDKILLFKHDPTSANLLQLVRSSGDIQEGDLVEVVLSASATFEDFQIRPHALTVHSYRAPAFCDHCGEMLFGLVRQGLKCDGCGLNYHKRCAFSIPNNCSGARKRRLSSTSLASGHSVRLGTSESLPCTAEELSRSTTELLPRRPPSSSSSSSASSYTGRPIELDKMLLSKVKVPHTFLIHSYTRPTVCQACKKLLKGLFRQGLQCKDCKFNCHKRCATRVPNDCLGEALINGDVPMEEATDFSEADKSALMDESEDSGVIPGSHSENALHASEEEEGEGGKAQSSLGYIPLMRVVQSVRHTTRKSSTTLREGWVVHYSNKDTLRKRHYWRLDCKCITLFQNNTTNRYYKEIPLSEILTVESAQNFSLVPPGTNPHCFEIVTANATYFVGEMPGGTPGGPSGQGAEAARGWETAIRQALMPVILQDAPSAPGHAPHRQASLSISVSNSQIQENVDIATVYQIFPDEVLGSGQFGVVYGGKHRKTGRDVAVKVIDKLRFPTKQESQLRNEVAILQSLRHPGIVNLECMFETPEKVFVVMEKLHGDMLEMILSSEKGRLPERLTKFLITQILVALRHLHFKNIVHCDLKPENVLLASADPFPQVKLCDFGFARIIGEKSFRRSVVGTPAYLAPEVLLNQGYNRSLDMWSVGVIMYVSLSGTFPFNEDEDINDQIQNAAFMYPASPWSHISAGAIDLINNLLQVKMRKRYSVDKSLSHPWLQEYQTWLDLRELEGKMGERYITHESDDARWEQFAAEHPLPGSGLPTDRDLGGACPPQDHDMQGLAERISVL
B2: the binding result is on record as “binds” in test [4], “binds” in test [1] and “no binding” in test [5].

B3: GGA1 (Golgi-associated, γ-adaptin ear-containing, ARF-binding protein 1) (protein, UniProt Q9UJY5 1-639)
chain: MEPAMEPETLEARINRATNPLNKELDWASINGFCEQLNEDFEGPPLATRLLAHKIQSPQEWEAIQALTVLETCMKSCGKRFHDEVGKFRFLNELIKVVSPKYLGSRTSEKVKNKILELLYSWTVGLPEEVKIAEAYQMLKKQGIVKSDPKLPDDTTFPLPPPRPKNVIFEDEEKSKMLARLLKSSHPEDLRAANKLIKEMVQEDQKRMEKISKRVNAIEEVNNNVKLLTEMVMSHSQGGAAAGSSEDLMKELYQRCERMRPTLFRLASDTEDNDEALAEILQANDNLTQVINLYKQLVRGEEVNGDATAGSIPGSTSALLDLSGLDLPPAGTTYPAMPTRPGEQASPEQPSASVSLLDDELMSLGLSDPTPPSGPSLDGTGWNSFQSSDATEPPAPALAQAPSMESRPPAQTSLPASSGLDDLDLLGKTLLQQSLPPESQQVRWEKQQPTPRLTLRDLQNKSSSCSSPSSSATSLLHTVSPEPPRPPQQPVPTELSLASITVPLESIKPSNILPVTVYDQHGFRILFHFARDPLPGRSDVLVVVVSMLSTAPQPIRNIVFQSAVPKVMKVKLQPPSGTELPAFNPIVHPSAITQVLLLANPQKEKVRLRYKLTFTMGDQTYNEMGDVDQFPPPETWGSL
Take B3: the binding result in test [1] is given as “binds”.
